Assay [1] concerns the target endogenous CD2AP of HEK293T cells (human (endogenous in HEK293T)) (UniProt Q9Y5K6). Description: co-IP; endogenous CD2AP precipitated with CD2AP 1774 and 1764 antibodies (rabbit IgG as control) from HEK293T cells transiently transfected with Flag-tankyrase 2, tankyrase 1 or Flag-ANK.
The target of assay [2] is T1, GST-tagged NH2-terminus (amino acids 1–330) of mouse CD2AP (mouse) (UniProt Q9JLQ0).
T1 sequence: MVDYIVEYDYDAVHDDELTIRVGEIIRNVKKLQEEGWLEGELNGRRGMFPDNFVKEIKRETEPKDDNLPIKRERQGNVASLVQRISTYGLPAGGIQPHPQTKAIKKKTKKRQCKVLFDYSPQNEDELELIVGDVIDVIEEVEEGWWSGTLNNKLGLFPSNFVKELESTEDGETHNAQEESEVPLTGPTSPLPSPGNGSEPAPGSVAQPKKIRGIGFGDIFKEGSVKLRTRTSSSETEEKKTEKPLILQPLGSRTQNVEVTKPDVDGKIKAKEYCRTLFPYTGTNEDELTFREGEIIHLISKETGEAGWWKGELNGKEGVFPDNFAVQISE
The assay is described as follows: pull-down; GST fusions of CD2AP (NH2 terminus, individual SH3 domains) or GST alone; lysates of transiently transfected HEK293T cells; immunoblotting; only the target purified.

Amino acid sequences for entries named in this document (tags omitted).
UniProt Q02248: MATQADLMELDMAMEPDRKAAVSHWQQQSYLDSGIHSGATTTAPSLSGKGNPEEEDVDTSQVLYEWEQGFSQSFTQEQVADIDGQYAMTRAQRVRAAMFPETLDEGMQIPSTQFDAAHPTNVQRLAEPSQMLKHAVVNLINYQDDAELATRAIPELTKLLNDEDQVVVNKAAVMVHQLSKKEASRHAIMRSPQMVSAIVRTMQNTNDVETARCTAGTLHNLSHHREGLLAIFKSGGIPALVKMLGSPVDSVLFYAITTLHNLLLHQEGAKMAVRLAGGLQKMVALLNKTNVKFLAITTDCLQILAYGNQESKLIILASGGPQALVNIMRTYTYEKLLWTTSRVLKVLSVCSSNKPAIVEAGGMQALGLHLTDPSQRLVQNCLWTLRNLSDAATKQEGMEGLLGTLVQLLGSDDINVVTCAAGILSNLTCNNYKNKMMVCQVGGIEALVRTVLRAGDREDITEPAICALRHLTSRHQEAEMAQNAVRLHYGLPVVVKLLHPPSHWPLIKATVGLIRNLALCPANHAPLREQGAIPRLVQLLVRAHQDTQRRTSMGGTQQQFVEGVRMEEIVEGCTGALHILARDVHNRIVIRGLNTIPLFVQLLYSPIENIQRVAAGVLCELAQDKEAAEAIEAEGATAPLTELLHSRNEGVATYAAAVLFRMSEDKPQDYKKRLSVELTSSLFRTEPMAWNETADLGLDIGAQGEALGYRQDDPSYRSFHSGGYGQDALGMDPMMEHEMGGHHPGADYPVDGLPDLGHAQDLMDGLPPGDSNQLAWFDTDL
UniProt P27782: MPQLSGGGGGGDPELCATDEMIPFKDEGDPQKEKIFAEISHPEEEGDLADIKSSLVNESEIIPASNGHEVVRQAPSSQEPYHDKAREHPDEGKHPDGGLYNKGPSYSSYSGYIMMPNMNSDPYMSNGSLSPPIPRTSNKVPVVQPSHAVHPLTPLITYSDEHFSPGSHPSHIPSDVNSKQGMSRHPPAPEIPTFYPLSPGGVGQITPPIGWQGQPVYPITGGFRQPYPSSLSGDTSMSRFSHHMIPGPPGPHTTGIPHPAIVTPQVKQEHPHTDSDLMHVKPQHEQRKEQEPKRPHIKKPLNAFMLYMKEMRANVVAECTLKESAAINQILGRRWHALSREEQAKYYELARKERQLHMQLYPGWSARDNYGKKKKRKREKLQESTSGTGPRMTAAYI

For assay [3], the target named is T2, GST-2.SH3 domain of CD2AP (mouse) (UniProt Q9JLQ0).
T2 sequence: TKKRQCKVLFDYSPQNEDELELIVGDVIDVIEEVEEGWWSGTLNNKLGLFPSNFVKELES
Described as above.

For assay [4], the target named is active β-catenin of mouse podocytes (mouse (endogenous in mouse podocytes)) (UniProt Q02248). The assay is described as follows: proximity ligation; Duolink in situ PLA with active β-catenin and LEF1 antibodies in cultured WT and CD2AP−/− mouse podocytes, without and with XAV939.
In assay [5] the target is endogenous CD2AP of mouse kidney (mouse (endogenous in mouse kidney)) (UniProt Q9JLQ0). Description: co-IP; endogenous CD2AP precipitated with CD2AP 1774 antibody (rabbit IgG as control) from mouse kidney and isolated rat glomerular lysates; endogenous tankyrases detected by immunoblotting.
In assay [6] the target is T1, GST-tagged NH2-terminus (amino acids 1–330) of mouse CD2AP (mouse). The assay is described as follows: pull-down; GST fusions of CD2AP (NH2 terminus, individual SH3 domains) or GST alone; lysates of transiently transfected HEK293T cells; immunoblotting; only the target purified. This is another data set of the same source.
The target of assay [7] is T2, GST-2.SH3 domain of CD2AP (mouse). Described as above. The source holds these as a separate data set.

Read-outs that look alike come from different tables or passages of the source. Results are given in words; binding and its absence hold for the method and conditions named. Binding seen in cells or lysates may run through a third protein. Some results given as binding are weak or reduced against the parent protein; the word gives no strength. For part of these data: Tags and fused reporters may be left off the sequences shown.

On to “tankyrase 1 transiently overexpressed in HEK293T cells (from UniProt O95271 1-1327) (enzyme)”, for which the binding entry in assay [1], in assay [2] and in assay [3] was “binds” each time.

“LEF1 of mouse podocytes (from UniProt P27782 1-397)”: the binding result in assay [4] was “binds”.

B1: tankyrase 2 endogenously expressed in mouse kidneys (enzyme, UniProt Q3UES3 1-1166)
chain: MSGRRCAGGGAACASAGAEAVEPSARELFEACRNGDVERVKRLVTPEKVNSRDTAGRKSTPLHFAAGFGRKDVVEYLLQNGANVQARDDGGLIPLHNACSFGHAEVVNLLLQHGADPNARDNWNYTPLHEAAIKGKIDVCIVLLQHGAEPTIRNTDGRTALDLADPSAKAVLTGDYKKDELLESARSGNEEKMMALLTPLNVNCHASDGRKSTPLHLAAGYNRVKIVQLLLHHGADVHAKDKGDLVPLHNACSYGHYEVTELLVKHGACVNAMDLWQFTPLHEAASKNRIEVCSLLLSYGADPTLLNCHNKSAIDLAPTAQLKERLSYEFKGHSLLQAAREADVTRIKKHLSLEMVNFKHPQTHETALHCAAASPYPKRKQICELLLRKGANTNEKTKEFLTPLHVASENAHNDVVEVVVKHEAKVNALDSLGQTSLHRAAHCGHLQTCRLLLSYGCDPNIISLQGFTALQMGNENVQQLLQEGASLGHSEADRQLLEAAKAGDVETVKKLCTVQSVNCRDIEGRQSTPLHFAAGYNRVSVVEYLLQHGADVHAKDKGGLVPLHNACSYGHYEVAELLVKHGAVVNVADLWKFTPLHEAAAKGKYEICKLLLQHGADPTKKNRDGNTPLDLVKDGDTDIQDLLRGDAALLDAAKKGCLARVKKLSSPDNVNCRDTQGRHSTPLHLAAGYNNLEVAEYLLQHGADVNAQDKGGLIPLHNAASYGHVDVAALLIKYNACVNATDKWAFTPLHEAAQKGRTQLCALLLAHGADPTLKNQEGQTPLDLVSADDVSALLTAAMPPSALPTCYKPQVLSGVRGPGATADALSSGPSSPSSLSAASSLDNLSGSFSELSAVVSSSAAEGATGLQRKEDSGIDFSITQFIRNLGLEHLMDIFEREQITLDVLVEMGHKELKEIGINAYGHRHKLIKGVERLISGQQGLNPYLTLNNSGSGTILIDLSPDDKEFQSVEEEMQSTVREHRDGGHAGGVFNRYNILKIQKVCNKKLWERYTHRRKEVSEENHNHANERMLFHGSPFVNAIIHKGFDERHAYIGGMFGAGIYFAENSSKSNQYVYGIGGGTGCPIHKDRSCYICHRQLLFCRVTLGKSFLQFSAMKMAHSPPGHHSVTGRPSVNGLALAEYVIYRGEQAYPEYLITYQIVRPEGMVDG
With B1, the binding result in assay [5] was “binds”.

B2: tankyrase 1 endogenously expressed in mouse kidneys (enzyme, UniProt Q6PFX9 1-1320)
chain: MAASRRSQHHHHHHQQQLQPAPGASAPPPPPPPPLSPGLAPGPTPASPTAGGLAPFASPRHGLALPEGDGSRDPPDRPRSPDPVDGAVCTVAAPAAVPAASAAVGVAPTPAGGGGGGGNNSASSASSPTSSSSSSPSSPGSSLAESPEAAGVGSTATLGAGAAGLGPGVPAVSGALRELLEACRNGDVSRVKRLVDAANVNAKDMAGRKSSPLHFAAGFGRKDVVEHLLQMGANVHARDDGGLIPLHNACSFGHAEVVSLLLCQGADPNARDNWNYTPLHEAAIKGKIDVCIVLLQHGADPNIRNTDGKSALDLADPSAKAVLTGEYKKDELLEAARSGNEEKLMALLTPLNVNCHASDGRKSTPLHLAAGYNRVRIVQLLLQHGADVHAKDKGGLVPLHNACSYGHYEVTELLLKHGACVNAMDLWQFTPLHEAASKNRVEVCSLLLSHGADPTLVNCHGKSAVDMAPTPELRERLTYEFKGHSLLQAAREADLAKVKKTLALEIINFKQPQSHETALHCAVASLHPKRKQVAELLLRKGANVNEKNKDFMTPLHVAAERAHNDVMEVLHKHGAKMNALDSLGQTALHRAALAGHLQTCRLLLSYGSDPSIISLQGFTAAQMGNEAVQQILSESTPMRTSDVDYRLLEASKAGDLETVKQLCSPQNVNCRDLEGRHSTPLHFAAGYNRVSVVEYLLHHGADVHAKDKGGLVPLHNACSYGHYEVAELLVRHGASVNVADLWKFTPLHEAAAKGKYEICKLLLKHGADPTKKNRDGNTPLDLVKEGDTDIQDLLRGDAALLDAAKKGCLARVQKLCTPENINCRDTQGRNSTPLHLAAGYNNLEVAEYLLEHGADVNAQDKGGLIPLHNAASYGHVDIAALLIKYNTCVNATDKWAFTPLHEAAQKGRTQLCALLLAHGADPTMKNQEGQTPLDLATADDIRALLIDAMPPEALPTCFKPQATVVSASLISPASTPSCLSAASSIDNLTGPLTDLAVGGASNAGDGAAGAERKEGEVAGLDMNISQFLKSLGLEHLRDIFETEQITLDVLADMGHEELKEIGINAYGHRHKLIKGVERLLGGQQGTNPYLTFHCVNQGTILLDLAPEDKEYQSVEEEMQSTIREHRDGGNAGGIFNRYNVIRIQKVVNKKLRERFCHRQKEVSEENHNHHNERMLFHGSPFINAIIHKGFDERHAYIGGMFGAGIYFAENSSKSNQYVYGIGGGTGCPTHKDRSCYICHRQMLFCRVTLGKSFLQFSTMKMAHAPPGHHSVIGRPSVNGLAYAEYVIYRGEQAYPEYLITYQIMKPEAPSQTATAAEQKT
B2: the binding entry in assay [5] was “binds”.

B3: Flag-tagged tankyrase 2 transiently overexpressed in HEK293T cells (enzyme, UniProt Q9H2K2 1-1166)
chain: MSGRRCAGGGAACASAAAEAVEPAARELFEACRNGDVERVKRLVTPEKVNSRDTAGRKSTPLHFAAGFGRKDVVEYLLQNGANVQARDDGGLIPLHNACSFGHAEVVNLLLRHGADPNARDNWNYTPLHEAAIKGKIDVCIVLLQHGAEPTIRNTDGRTALDLADPSAKAVLTGEYKKDELLESARSGNEEKMMALLTPLNVNCHASDGRKSTPLHLAAGYNRVKIVQLLLQHGADVHAKDKGDLVPLHNACSYGHYEVTELLVKHGACVNAMDLWQFTPLHEAASKNRVEVCSLLLSYGADPTLLNCHNKSAIDLAPTPQLKERLAYEFKGHSLLQAAREADVTRIKKHLSLEMVNFKHPQTHETALHCAAASPYPKRKQICELLLRKGANINEKTKEFLTPLHVASEKAHNDVVEVVVKHEAKVNALDNLGQTSLHRAAYCGHLQTCRLLLSYGCDPNIISLQGFTALQMGNENVQQLLQEGISLGNSEADRQLLEAAKAGDVETVKKLCTVQSVNCRDIEGRQSTPLHFAAGYNRVSVVEYLLQHGADVHAKDKGGLVPLHNACSYGHYEVAELLVKHGAVVNVADLWKFTPLHEAAAKGKYEICKLLLQHGADPTKKNRDGNTPLDLVKDGDTDIQDLLRGDAALLDAAKKGCLARVKKLSSPDNVNCRDTQGRHSTPLHLAAGYNNLEVAEYLLQHGADVNAQDKGGLIPLHNAASYGHVDVAALLIKYNACVNATDKWAFTPLHEAAQKGRTQLCALLLAHGADPTLKNQEGQTPLDLVSADDVSALLTAAMPPSALPSCYKPQVLNGVRSPGATADALSSGPSSPSSLSAASSLDNLSGSFSELSSVVSSSGTEGASSLEKKEVPGVDFSITQFVRNLGLEHLMDIFEREQITLDVLVEMGHKELKEIGINAYGHRHKLIKGVERLISGQQGLNPYLTLNTSGSGTILIDLSPDDKEFQSVEEEMQSTVREHRDGGHAGGIFNRYNILKIQKVCNKKLWERYTHRRKEVSEENHNHANERMLFHGSPFVNAIIHKGFDERHAYIGGMFGAGIYFAENSSKSNQYVYGIGGGTGCPVHKDRSCYICHRQLLFCRVTLGKSFLQFSAMKMAHSPPGHHSVTGRPSVNGLALAEYVIYRGEQAYPEYLITYQIMRPEGMVDG
Take B3: the binding entry in assay [1], in assay [6] and in assay [7] was “binds” each time.
